The source of these data is PubChem BioAssay AID330 (DTP/NCI, 2004).

Structures are written as SMILES. The list is a part of this screen's results and no random one: it is rich in T/C values a quarter to a half above the control, in often repeated tests (any T/C) and in doses without a T/C. Other doses and runs of a compound stand elsewhere. T/C gives the treated animals as a percentage of the vehicle group. Some entries give survivors of the animals treated and no T/C: the source files T/C as zero there, which appears to mark a toxic dose or a test without result, not a measured value. Some doses without a T/C left all or most animals alive at the check, yet need not have been tolerated: the source hardly ever lists a survival T/C far under the control, and the zero likely stands for such cases as well. Counts of survivors are from the toxicity check (mostly the fifth day) where no day follows; animals may have died later. Schedule codes are those of the source, taken here to give the interval after Q, in days (D) or hours (H), and the number of doses after X. Some entries were tested several times; the results are listed from low to high. Signs of the kind (2×) stand for listed records that agree. Where survival is the endpoint, this PubChem deposit counts one and a half times the control or more as active, and values a quarter to a half above the control carry no call in these data; other NCI protocols may use other cut-offs. Some T/C values carry the count of animals alive at the toxicity check (mostly the fifth day); where none is given, no animal had died by that day.

The test system of this test is P388 leukemia ip, CD2F1 mice, survival T/C. Description: NCI In Vivo Anticancer Drug Screen. Data for tumor model P388 Leukemia (intraperitoneal) in CD2F1 (CDF1) mice. The following applies: T/C endpoint: median survival time, higher T/C = longer survival.
[1] abbreviates: dose: 200.0 mg/kg/injection, schedule: Q01DX005 (ip), vehicle: Klucel (hydroxypropylcellulose) (HPC).
Setting [2] is: dose: 50.0 mg/kg/injection, schedule: Q01DX005 (ip), vehicle: saline with Tween-80.
[3] abbreviates: dose: 100.0 mg/kg/injection, schedule: Q01DX005 (ip), vehicle: saline with Tween-80.
[4] abbreviates: dose: 200.0 mg/kg/injection, schedule: Q01DX005 (ip), vehicle: saline with Tween-80.
Where [5] appears, read: dose: 240.0 mg/kg/injection, schedule: Q01DX005 (ip), vehicle: Klucel (hydroxypropylcellulose) (HPC).
[6] abbreviates: dose: 6.25 mg/kg/injection, schedule: Q01DX009 (ip), vehicle: water.

As to `CC(/C=C/C(=O)NO)=C\C(C)C(=O)c1ccc(N(C)C)cc1` (stereo not given), the T/C was 130 % of control (dose: 2.19 mg/kg/injection, schedule: Q01DX009 (ip), vehicle: saline with Tween-80) and 134 % of control (dose: 4.38 mg/kg/injection, schedule: Q01DX009 (ip), vehicle: saline with Tween-80). For the same compound, the survivor count (dose: 17.5 mg/kg/injection, schedule: Q01DX009 (ip), vehicle: Klucel (hydroxypropylcellulose) (HPC)) was 5 of 6 and the survivor count (dose: 35.0 mg/kg/injection, schedule: Q01DX009 (ip), vehicle: Klucel (hydroxypropylcellulose) (HPC)) is given as 5 of 6.

Regarding `Cc1cn2ccccc2c[n+]1=O`, the survivor count (dose: 20.0 mg/kg/injection, schedule: Q01DX009 (ip), vehicle: saline sonified) is reported as 5 of 6.

As to `COCCCNC(=S)N/N=C/c1cc(Cl)cc(Cl)c1O`, the survivor count was 6 of 6 (dose: 25.0 mg/kg/injection, schedule: Q01DX009 (ip), vehicle: saline with Tween-80); 5 of 6 (dose: 50.0 mg/kg/injection, schedule: Q01DX009 (ip), vehicle: saline with Tween-80); 6 of 6 (dose: 100.0 mg/kg/injection, schedule: Q01DX009 (ip), vehicle: saline with Tween-80).

For the compound `COC12CC(=O)C(C(C)=O)=C(O)C1(C)c1c(O)c(C)c(O)c(C(C)=O)c1O2` (stereo not given), the survivor count is, setting by setting: (dose: 100.0 mg/kg/injection, schedule: Q01DX009 (ip), vehicle: gum acacia) 0 of 6 and 1 of 6; (dose: 200.0 mg/kg/injection, schedule: Q01DX009 (ip), vehicle: gum acacia) 0 of 6.

In the case of `CCOc1ccc(NC(=O)C(C(C)N2CCCCC2)N2CCCCC2)cc1` (stereo not given), the survivor count (dose: 50.0 mg/kg/injection, schedule: Q01DX009 (ip), vehicle: saline) was 6 of 6.

For the compound `O=C(Nc1ccc(C2=NCCN2)cc1)c1ccc(C(=O)Nc2ccc(C3=NCCN3)cc2)cc1`, the survivor count reads like this: (dose: 167.0 mg/kg/injection, schedule: Q01DX010 (ip), vehicle: saline) 6 of 6; (dose: 250.0 mg/kg/injection, schedule: Q01DX010 (ip), vehicle: saline) 6 of 6.

Take `C[CH2][Pb]([CH2]C)([CH2]C)[O]C(=O)CBr`: the T/C (dose: 6.0 mg/kg/injection, schedule: Q01DX009 (ip), vehicle: saline) is 126 % of control.

For `Cc1cc2cccc(Br)c(=O)c2o1`, the survivor count by setting is: (dose: 100.0 mg/kg/injection, schedule: Q01DX001 (ip), vehicle: saline with Tween-80) 2 of 6; (dose: 200.0 mg/kg/injection, schedule: Q01DX001 (ip), vehicle: saline with Tween-80) 0 of 6; (dose: 400.0 mg/kg/injection, schedule: Q01DX001 (ip), vehicle: saline with Tween-80) 0 of 6.

`CCOc1ccc2ccccc2c1C(Cc1ccccc1)NC` (stereo not given): the survivor count is, setting by setting: (dose: 100.0 mg/kg/injection, schedule: Q01DX005 (ip), vehicle: Klucel (hydroxypropylcellulose) (HPC)) 0 of 5; under setting [1], 0 of 5.

Turning to `COc1ncnc2nc(Cl)[nH]c12`, under setting [1], the survivor count is on record as 5 of 5.

Turning to `CN(CCC(=O)/C(=C\c1ccccc1)c1ccc(Cl)cc1)Cc1ccccc1`, the survivor count was 3 of 5 (dose: 12.5 mg/kg/injection, schedule: Q01DX005 (ip), vehicle: saline with Tween-80); 0 of 5 under setting [2]; 0 of 5 under setting [3]; 0 of 5 under setting [4].

As to `CC1(c2ccccc2)CCCCC/C1=N/Nc1ccc([N+](=O)[O-])cc1[N+](=O)[O-]` (stereo not given), the survivor count under setting [1] is 6 of 6.

On to `Nc1[nH]c(=S)nc2nc[nH]c12`, for which the survivor count is recorded as 3 of 6 (dose: 25.0 mg/kg/injection, schedule: Q01DX005 (ip), vehicle: saline with Tween-80); 0 of 6 under setting [2]; 0 of 6 under setting [3]; 0 of 6 under setting [4].

In the case of `O=C1C2=C(Nc3cc([N+](=O)[O-])ccc3N2)OC1c1c2ccccc2cc2ccccc12` (stereo not given), the survivor count under setting [5] is 6 of 6.

On to `CNC(=O)Oc1ccccc1OC(C)C`, for which the survivor count is 0 of 6 (dose: 30.0 mg/kg/injection, schedule: Q01DX005 (ip), vehicle: Klucel (hydroxypropylcellulose) (HPC)); 0 of 6 (dose: 60.0 mg/kg/injection, schedule: Q01DX005 (ip), vehicle: Klucel (hydroxypropylcellulose) (HPC)); 0 of 6 (dose: 120.0 mg/kg/injection, schedule: Q01DX005 (ip), vehicle: Klucel (hydroxypropylcellulose) (HPC)); 0 of 6 under setting [5].

On to `CCOCC(=O)[C@]1(O)Cc2c(O)c3c(c(O)c2[C@@H](OC2CC(N)C(O)C(C)O2)C1)C(=O)c1c(OC)cccc1C3=O` (stereo not given in full), for which the T/C was 137 % of control (dose: 0.78 mg/kg/injection, schedule: Q01DX009 (ip), vehicle: water); 144 % of control (dose: 1.56 mg/kg/injection, schedule: Q01DX009 (ip), vehicle: water); 146 % of control under setting [6]. Besides, the survivor count runs as follows: under setting [6], 6 of 6; (dose: 12.5 mg/kg/injection, schedule: Q01DX009 (ip), vehicle: water) 4 of 6 and 6 of 6; (dose: 25.0 mg/kg/injection, schedule: Q01DX009 (ip), vehicle: water) 2 of 6.

Take `c1cn(C23CC4CC(CC(C4)C2)C3)cn1`: the survivor count is, setting by setting: (dose: 50.0 mg/kg/injection, schedule: Q01DX001 (ip), vehicle: Klucel (hydroxypropylcellulose) (HPC)) 0 of 6; (dose: 100.0 mg/kg/injection, schedule: Q01DX001 (ip), vehicle: Klucel (hydroxypropylcellulose) (HPC)) 0 of 6 (2×); (dose: 200.0 mg/kg/injection, schedule: Q01DX001 (ip), vehicle: Klucel (hydroxypropylcellulose) (HPC)) 0 of 6; (dose: 400.0 mg/kg/injection, schedule: Q01DX001 (ip), vehicle: Klucel (hydroxypropylcellulose) (HPC)) 0 of 6.

On to `CCOc1ccc(-n2c(C)c(COC(=O)NC)c(COC(=O)NC)c2C)cc1`, for which the T/C (dose: 25.0 mg/kg/injection, schedule: Q01DX009 (ip), vehicle: Klucel (hydroxypropylcellulose) (HPC)) was 136 % of control. For the same compound, where the note is “dose: 50.0 mg/kg/injection, schedule: Q01DX009 (ip), vehicle: Klucel (hydroxypropylcellulose) (HPC)”, the survivor count is 5 of 6.

For the compound `O=C(O)c1ccccc1-c1c2cc(Br)c(=O)cc-2oc2[c]([Hg])c(O)c(Br)cc12`, the survivor count is 3 of 6 (dose: 50.0 mg/kg/injection, schedule: Q01DX005 (ip), vehicle: saline); 0 of 6 (dose: 100.0 mg/kg/injection, schedule: Q01DX005 (ip), vehicle: saline); 0 of 6 (dose: 200.0 mg/kg/injection, schedule: Q01DX005 (ip), vehicle: saline).

As to `N=C(N)c1ccc(OCCCOc2ccc(C(=N)N)cc2Br)c(Br)c1`, the T/C (dose: 6.25 mg/kg/injection, schedule: Q01DX009 (ip), vehicle: saline) is 140 % of control; the T/C (dose: 16.5 mg/kg/injection, schedule: Q01DX009 (ip), vehicle: saline sonified) is 133 % of control; the T/C (dose: 25.0 mg/kg/injection, schedule: Q01DX009 (ip), vehicle: saline sonified) was 142 % of control; the T/C (dose: 25.0 mg/kg/injection, schedule: Q01DX009 (ip), vehicle: saline) was 136 % of control; the T/C (dose: 37.5 mg/kg/injection, schedule: Q01DX009 (ip), vehicle: saline sonified) is 142 % of control [5 of 6 alive]; the T/C (dose: 50.0 mg/kg/injection, schedule: Q04DX003 (ip), vehicle: saline sonified) is 131 % of control [5 of 6 alive]. Further, the survivor count reads like this: (dose: 75.0 mg/kg/injection, schedule: Q04DX003 (ip), vehicle: saline) 4 of 6; (dose: 100.0 mg/kg/injection, schedule: Q04DX003 (ip), vehicle: saline sonified) 1 of 6; (dose: 200.0 mg/kg/injection, schedule: Q04DX003 (ip), vehicle: saline sonified) 0 of 6.

For the compound `CN(C)c1ccc(N2C(N)=NC(N)=NC2(C)C)cc1`, the survivor count by setting is: (dose: 120.0 mg/kg/injection, schedule: Q01DX005 (ip), vehicle: saline) 0 of 6; (dose: 240.0 mg/kg/injection, schedule: Q01DX005 (ip), vehicle: saline) 0 of 6.
